PubChem BioAssay AID1259290, Sanger Institute, 2017
The whole screen tested 794 reagents; shown is a random part of them. 9 of all reagents (1.1%) count as active. 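Calls rest on knock-down alone, not drug synergy; synergy above 0.15 was grouped apart and does not affect calls.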 No viability above 1 is reported: the scale is capped. Further read-outs or replicates are left out here. Reagent sequences are not shown. Not given: the amount of reagent, the time to read-out.

Screen: 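siRNA screen across the kinome seeking synthetic lethal partners for BYL719, cetuximab or trametinib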 (primary screen)
System: human SNUC1 colorectal cancer cells
Reagent: siRNA pool against human genes
Conditions: anchor drugs BYL719 1 µM, cetuximab 5 µg/ml or trametinib 10 nM, or DMSO vehicle alone
Detection: 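Viability averaged over replicates and scaled to non-targeting siRNA, robust z-score with no drug, and synergy scores by drug for BYL719, cetuximab and trametinib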
Scale: viability z-score, siRNA alone: higher = more viable cells; low values mean essential gene; viability vs control, siRNA alone: higher = more viable cells
Hit rule: 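a knock-down without drug scoring a robust z under -3 counts as essential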
Meaning of the calls: active = essential: knock-down alone cut viability (z below -3); inactive = no clear viability loss with knock-down alone

RPS6KB2 (GeneID 6199): viability z-score, siRNA alone = -0.962; viability vs control, siRNA alone = 0.829; Call = inactive
WNK2 (GeneID 65268): viability z-score, siRNA alone = -0.505; viability vs control, siRNA alone = 0.87; Call = inactive
ACVR1 (GeneID 90): viability z-score, siRNA alone = -1.77; viability vs control, siRNA alone = 0.757; Call = inactive
POLR2B (GeneID 5431): viability z-score, siRNA alone = -0.101; viability vs control, siRNA alone = 0.907; Call = inactive
BRAF (GeneID 673): viability z-score, siRNA alone = 0.936; viability vs control, siRNA alone = 1; Call = inactive
AAK1 (GeneID 22848): viability z-score, siRNA alone = 0.558; viability vs control, siRNA alone = 0.966; Call = inactive
MAGI2 (GeneID 9863): viability z-score, siRNA alone = -1.64; viability vs control, siRNA alone = 0.768; Call = inactive
PRKAR2B (GeneID 5577): viability z-score, siRNA alone = 0.735; viability vs control, siRNA alone = 0.982; Call = inactive
ITK (GeneID 3702): viability z-score, siRNA alone = 0.936; viability vs control, siRNA alone = 1; Call = inactive
CDKL5 (GeneID 6792): viability z-score, siRNA alone = 0.402; viability vs control, siRNA alone = 0.952; Call = inactive
ELF3 (GeneID 1999): viability z-score, siRNA alone = 0.0882; viability vs control, siRNA alone = 0.924; Call = inactive

Reprinted from the entries so far for reference:
POLR2B (GeneID 5431): viability z-score, siRNA alone = -0.101; viability vs control, siRNA alone = 0.907; Call = inactive
BRAF (GeneID 673): viability z-score, siRNA alone = 0.936; viability vs control, siRNA alone = 1; Call = inactive

Continued.
CDK11A (GeneID 728642): viability z-score, siRNA alone = -2.18; viability vs control, siRNA alone = 0.719; Call = inactive
CLK2 (GeneID 1196): viability z-score, siRNA alone = 0.936; viability vs control, siRNA alone = 1; Call = inactive
MAPK10 (GeneID 5602): viability z-score, siRNA alone = 0.936; viability vs control, siRNA alone = 1; Call = inactive
PTK2 (GeneID 5747): viability z-score, siRNA alone = 0.0392; viability vs control, siRNA alone = 0.919; Call = inactive
PRKY (GeneID 5616): viability z-score, siRNA alone = 0.544; viability vs control, siRNA alone = 0.965; Call = inactive
PCK1 (GeneID 5105): viability z-score, siRNA alone = 0.936; viability vs control, siRNA alone = 1; Call = inactive
DBF4 (GeneID 10926): viability z-score, siRNA alone = 0.634; viability vs control, siRNA alone = 0.973; Call = inactive
AKAP9 (GeneID 10142): viability z-score, siRNA alone = 0.936; viability vs control, siRNA alone = 1; Call = inactive
PRP4K (GeneID 8899): viability z-score, siRNA alone = -1.19; viability vs control, siRNA alone = 0.808; Call = inactive
MARK1 (GeneID 4139): viability z-score, siRNA alone = 0.00368; viability vs control, siRNA alone = 0.916; Call = inactive
MAGI3 (GeneID 260425): viability z-score, siRNA alone = -0.00317; viability vs control, siRNA alone = 0.915; Call = inactive
GNE (GeneID 10020): viability z-score, siRNA alone = -0.365; viability vs control, siRNA alone = 0.883; Call = inactive
MAP2K6 (GeneID 5608): viability z-score, siRNA alone = -1.2; viability vs control, siRNA alone = 0.808; Call = inactive
CAD (GeneID 790): viability z-score, siRNA alone = 0.31; viability vs control, siRNA alone = 0.944; Call = inactive
TWF1 (GeneID 5756): viability z-score, siRNA alone = 0.936; viability vs control, siRNA alone = 1; Call = inactive
CSNK1A1L (GeneID 122011): viability z-score, siRNA alone = 0.936; viability vs control, siRNA alone = 1; Call = inactive
VRK1 (GeneID 7443): viability z-score, siRNA alone = 0.936; viability vs control, siRNA alone = 1; Call = inactive
